Assay results from patent US20250137008A1 (UNIVERSITY OF GLASGOW, published 2025).
Results are given in words; binding and its absence hold for the method and conditions named. Some binding calls cover weakened binding; strength is not graded here. For part of these data: Where a sequence is shown, tags or fusion partners need not be part of it. Values belong to the binder of their own block, whether it stands above or below them.

How the values were obtained:
[1] = molecular target: gVSD N-terminus (soluble) (Arabidopsis thaliana) (UniProt Q94A76); assay: gel filtration of soluble N-termini (self-association)
[2] = molecular target: T1, full-length GORK channel (GORK-Cub bait fusion) (Arabidopsis thaliana) (UniProt Q94A76); assay: rBiFC in vivo, confocal imaging
T1 sequence: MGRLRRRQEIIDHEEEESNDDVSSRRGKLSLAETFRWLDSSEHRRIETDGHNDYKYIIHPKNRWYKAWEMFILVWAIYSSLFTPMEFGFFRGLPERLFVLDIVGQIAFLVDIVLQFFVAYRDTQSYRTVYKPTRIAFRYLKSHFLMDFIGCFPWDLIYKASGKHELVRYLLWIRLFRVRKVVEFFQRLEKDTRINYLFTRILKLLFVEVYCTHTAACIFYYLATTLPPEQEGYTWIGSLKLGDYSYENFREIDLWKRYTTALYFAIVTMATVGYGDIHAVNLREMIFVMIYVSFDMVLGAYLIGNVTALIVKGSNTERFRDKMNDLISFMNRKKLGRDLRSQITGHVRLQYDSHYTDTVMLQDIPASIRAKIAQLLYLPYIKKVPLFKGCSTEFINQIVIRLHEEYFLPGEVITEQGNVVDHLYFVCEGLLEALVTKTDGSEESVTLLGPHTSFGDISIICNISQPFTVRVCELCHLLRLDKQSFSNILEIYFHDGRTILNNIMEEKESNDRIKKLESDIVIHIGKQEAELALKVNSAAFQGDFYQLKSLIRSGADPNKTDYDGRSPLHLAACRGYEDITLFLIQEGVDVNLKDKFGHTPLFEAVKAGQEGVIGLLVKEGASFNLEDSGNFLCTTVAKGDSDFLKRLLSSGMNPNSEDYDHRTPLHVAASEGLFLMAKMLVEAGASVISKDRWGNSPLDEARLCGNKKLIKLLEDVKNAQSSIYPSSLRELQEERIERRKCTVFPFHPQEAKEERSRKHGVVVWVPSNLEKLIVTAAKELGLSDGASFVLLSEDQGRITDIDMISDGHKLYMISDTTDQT

[3] = molecular target: T1, full-length GORK channel (GORK-Cub bait fusion) (Arabidopsis thaliana); assay: mbSUS in yeast, GORK-Cub bait, Nub-X prey
[4] = molecular target: T1, full-length GORK channel (GORK-Cub bait fusion) (Arabidopsis thaliana); assay: mbSUS in yeast, GORK-Cub bait, truncated prey

B3: GORK voltage sensor domain (gVSD) (protein)
chain: MGRLRRRQEIIDHEEEESNDDVSSRRGKLSLAETFRWLDSSEHRRIETDGHNDYKYIIHPKNRWYKAWEMFILVWAIYSSLFTPMEFGFFRGLPERLFVLDIVGQIAFLVDIVLQFFVAYRDTQSYRTVYKPTRIAFRYLKSHFLMDFIGCFPWDLIYKASGKHELVRYLLWIRLFRVRKVVEFFQRLEKDTRINYLFTRILK
binding [2]: binds
binding [3]: binds

B4: gVSD with the first 23 residues deleted (protein)
chain: SRRGKLSLAETFRWLDSSEHRRIETDGHNDYKYIIHPKNRWYKAWEMFILVWAIYSSLFTPMEFGFFRGLPERLFVLDIVGQIAFLVDIVLQFFVAYRDTQSYRTVYKPTRIAFRYLKSHFLMDFIGCFPWDLIYKASGKHELVRYLLWIRLFRVRKVVEFFQRLEKDTRINYLFTRILK
binding [4]: binds

Results, then the binder that gave them:

binding [1]: binds
B1: gVSD N-terminus (soluble) (protein)
chain: MGRLRRRQEIIDHEEEESNDDVSSRRGKLSLAETFRWLDSSEHRRIETDGHNDYKYIIHPKNRWYKAWE

binding [2]: binds
binding [3]: binds
B2: gVSD^PNNP (protein)
chain: MGRLRRRQEIIDHEEEESNDDVSSDDGDLSLAKTFDWLKSSKDDDIKTKGDNKYDYIIDPKNRWYKAWEMFILVWAIYSSLFTPMEFGFFRGLPERLFVLDIVGQIAFLVDIVLQFFVAYRDTQTYRTVYKPTRIAFRYLKSHFLMDFIGCFPWDLIYKASGKHELVRYLLWIRLFRVRKVVEFFQRLEKDTRINYLFTRILK
